These are yes or no findings as the source states them, for the method shown. Binding seen in cells or lysates may run through a third protein. Binding calls can cover weak binding; strength is not graded here. Tags and fused reporters may be left off the sequences shown.
Molecular target: T1, Nuclear factor erythroid 2-related factor 2 (Nrf2), human, split-ubiquitin fusion (human) (UniProt Q16236)
T1 sequence: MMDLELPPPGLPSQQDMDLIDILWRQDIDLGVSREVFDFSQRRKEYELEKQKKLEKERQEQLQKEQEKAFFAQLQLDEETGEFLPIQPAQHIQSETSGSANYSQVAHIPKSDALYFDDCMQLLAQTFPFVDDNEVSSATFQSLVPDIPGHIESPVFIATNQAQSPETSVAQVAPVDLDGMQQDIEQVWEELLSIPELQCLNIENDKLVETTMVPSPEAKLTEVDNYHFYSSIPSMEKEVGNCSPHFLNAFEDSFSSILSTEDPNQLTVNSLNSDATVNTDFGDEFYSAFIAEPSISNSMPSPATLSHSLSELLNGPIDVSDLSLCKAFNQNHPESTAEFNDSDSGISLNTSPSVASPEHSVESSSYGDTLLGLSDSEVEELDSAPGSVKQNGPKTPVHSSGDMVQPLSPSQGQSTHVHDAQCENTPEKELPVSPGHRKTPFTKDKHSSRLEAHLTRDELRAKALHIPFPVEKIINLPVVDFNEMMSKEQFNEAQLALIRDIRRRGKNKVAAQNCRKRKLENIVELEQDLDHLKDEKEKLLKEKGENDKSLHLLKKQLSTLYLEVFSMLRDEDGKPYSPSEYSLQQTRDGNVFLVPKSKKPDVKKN
Test: split reporter; yeast split-ubiquitin system: Nub (NuI, NuA, NuG) and Cub-RUra3p (CRU) fusions co-expressed in yeast; interaction = no growth on uracil- media and growth on 5FOA media; 5x serial dilutions spotted on selective agar plates

- binding: binds
Substance: Hsp90, split-ubiquitin fusion

From article PMC9016900
